Where two headings read alike, the source gives them in different places.
Conditions: for Mean phenanthrene value obtained with the immunoassay: mean of four water samples

c1ccc2c(c1)ccc1ccccc12 [phenanthrene]
% Recovery (Phenanthrene added +5.0 ppb): 102%
Mean phenanthrene value obtained with the immunoassay (Phenanthrene added +5.0 ppb): 5.09 ppb
% Recovery (Phenanthrene added +7.5 ppb): 108%
Mean phenanthrene value obtained with the immunoassay (Phenanthrene added +7.5 ppb): 8.13 ppb
% Recovery (Phenanthrene added +20.0 ppb): 107%
Mean phenanthrene value obtained with the immunoassay (Phenanthrene added +20.0 ppb): 21.46 ppb
% Recovery (Phenanthrene added +40.0 ppb): 102%
Mean phenanthrene value obtained with the immunoassay (Phenanthrene added +40.0 ppb): 40.91 ppb

— patent publication US5780250A, “Immunoassay standards for polyaromatic hydrocarbon detection” (Strategic Diagnostics, Inc., priority 1996, dated 1998)
